# Reference: the supplement of paper PMC12823440, “Inhibitors supercharge kinase turnover through native proteolytic circuits” (Nature, 2025)
# By UniProt entry, the sequences of proteins in these tests, tags left out. Where a name states a change or a piece, a line headed by the entry shows the natural chain unless it says otherwise.
# UniProt O96013: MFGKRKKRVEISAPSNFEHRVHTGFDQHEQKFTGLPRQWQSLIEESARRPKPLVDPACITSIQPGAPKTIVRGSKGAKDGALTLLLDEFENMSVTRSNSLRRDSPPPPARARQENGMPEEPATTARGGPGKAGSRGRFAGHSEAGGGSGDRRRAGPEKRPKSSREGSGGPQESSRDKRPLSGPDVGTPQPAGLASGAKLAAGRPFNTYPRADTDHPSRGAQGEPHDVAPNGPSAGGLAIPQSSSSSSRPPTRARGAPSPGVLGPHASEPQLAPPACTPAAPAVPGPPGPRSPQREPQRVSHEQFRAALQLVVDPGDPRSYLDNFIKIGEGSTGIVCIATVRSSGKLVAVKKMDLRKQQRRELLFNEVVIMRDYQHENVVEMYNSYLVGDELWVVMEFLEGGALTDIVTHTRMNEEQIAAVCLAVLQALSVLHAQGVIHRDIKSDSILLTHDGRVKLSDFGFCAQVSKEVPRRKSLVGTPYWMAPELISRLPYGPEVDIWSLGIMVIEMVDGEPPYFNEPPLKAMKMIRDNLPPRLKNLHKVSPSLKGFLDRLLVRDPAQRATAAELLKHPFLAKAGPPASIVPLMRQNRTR
# Structures can show the parent of a compound that is named as a salt. This is one part of the list. The calls rarely recur for the same compound in another form.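 In K562 cells expressing nanoluciferase-fused kinases, luminescence was recorded at 4 h intervals between 2 and 18 h, normalized as percent of control with DMSO at 100% and a positive control at 0%. A significant (2 sigma) signal drop marks a time point as decreased. The authors' rule for a hit is not shown and takes in more than the number of time points.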
# Biological target: PAK4 (UniProt O96013)
# Test: kinase-Nluc reporter destabilization hit call (1 = scored as downregulated) (binary); higher = compound decreases kinase abundance
# Conditions: K562; 2-18 h
row,SMILES,kinase-Nluc reporter destabilization hit call
1,C=CC(=O)N1CCC[C@@H](n2c(=O)n(-c3ccc(Oc4ccccc4)cc3)c3c(N)nccc32)C1 [Tolebrutinib] (10 µM),inactive: 0
2,C[C@]1(O)C[C@@](N)(c2ccc(-c3nc4n(c3-c3ccccc3)COc3ccncc3-4)cc2)C1 [TAS-117 (hydrochloride)] (10 µM),inactive: 0
3,CCOC(=O)C1=C[C@]2(CC)CCCN3CCc4c(n1c1ccccc41)[C@@H]32 [Vinpocetine] (10 µM),inactive: 0
4,CC(C)(C)NS(=O)(=O)c1cncc(-c2cc(F)c3nc(N)nn3c2)c1 (10 µM),inactive: 0
5,CC(C)(C)c1ccc(C(=O)Nc2cn3cc(-n4ccnc4)ccc3n2)cc1 (10 µM),inactive: 0
6,Cc1nc(NC(=O)N2CCC[C@H]2C(N)=O)sc1-c1csc(C(C)(C)C)n1 (10 µM),inactive: 0
7,N#Cc1cn([C@@H]2O[C@H](CO)[C@@H](O)[C@H]2O)c2nc[nH]c(=O)c12 [Jaspamycin] (10 µM),inactive: 0
8,Cc1ccc(-c2csc(Cn3nc(CC4OCCCO4)c4ccccc4c3=O)n2)cc1 (10 µM),inactive: 0
9,CNC(=O)c1c(C)oc2cc(Oc3ncnc4cc(OC)c(OC)cc34)ccc12 [Fruquintinib] (10 µM),inactive: 0
10,O=S(=O)(N=Cc1c(O)ccc2ccccc12)c1cccs1 (10 µM),inactive: 0
11,NC(=O)c1cccc2c(N[C@H](CN3CCC3)c3ccc(Cl)c(C(F)(F)F)c3)ncnc12 (10 µM),inactive: 0
12,CN1CCC(c2ccccc2CC(C)(C)Nc2nc(N3CCOCC3)nc(-n3c(S(C)(=O)=O)nc4ccccc43)n2)CC1 (10 µM),inactive: 0
13,O=c1ccc2cc(O)c(O)cc2o1 [Esculetin] (10 µM),inactive: 0
14,O=C(Nc1nc2cccc(-c3ccc(CN4CCS(=O)(=O)CC4)cc3)n2n1)C1CC1 [Filgotinib] (2.5 µM),inactive: 0
15,CC(C)(O)c1cc2nc(-c3cnc(N)nc3)nc(N3CCOCC3)c2s1 (2.5 µM),inactive: 0
16,Cn1cc(-c2ccc3ncc(Cc4ccc5ncccc5c4)n3n2)cn1 (10 µM),inactive: 0
17,"CC(=O)c1cc(O)ccc1O [2,5-Dihydroxyacetophenone] (10 µM)",inactive: 0
18,COc1ccc(COc2cc3oc(=O)c4cc(C(C)O)ccc4c3cc2OC)cc1 (stereo not drawn) [Palomid 529] (2.5 µM),inactive: 0
19,O=C(CC(c1ccccc1)C(C(=O)O)C(=O)O)c1ccc(C(F)(F)F)cc1 (stereo not drawn) (10 µM),inactive: 0

row,SMILES,kinase-Nluc reporter destabilization hit call
1,CC(C)[C@H](CO)Nc1nc(Nc2ccc(C(=O)O)c(Cl)c2)c2ncn(C(C)C)c2n1 [Purvalanol B] (10 µM),inactive: 0
2,COc1cc2nccc(Oc3ccc(NC(=O)Nc4ccc(F)cc4F)c(F)c3)c2cc1OC (10 µM),inactive: 0
3,N#C/C(=C\c1ccc[nH]1)c1ccc(Cl)c(Cl)c1 (2.5 µM),inactive: 0
4,O=c1cc(-c2ccc(O)cc2)oc2cc(O)c(O)c(O)c12 [Scutellarein] (10 µM),inactive: 0
5,CC(C)n1nc(C#Cc2ccccc2)c2c(N)ncnc21 (10 µM),inactive: 0
6,O=C(N=c1sccn1Cc1ccccc1)c1c[nH]c2ncccc12 (10 µM),inactive: 0
7,CC(C)=C/C=C1\O[C@@H]2CC(C)=CC(=O)[C@@H]2[C@]1(C)O [Bisabolangelone] (10 µM),inactive: 0
8,COc1ccc(C2CC(c3ccc(Cl)cc3)=NN2c2nc(-c3ccncc3)cs2)cc1 (stereo not drawn) [mTOR inhibitor-8] (10 µM),inactive: 0
9,Cc1cc(F)c(Nc2ncnc3cc(OCc4ccccc4)ccc23)cc1O (10 µM),inactive: 0
10,CNCCOc1ccccc1C(C)(C)Nc1nccn(-c2cc(C(=O)NC3CC3)ccc2C)c1=O [p38α inhibitor 2] (10 µM),inactive: 0
11,CCn1c(-c2nonc2N)nc2c(C#CCO)ncc(OCCCN)c21 [AKT Kinase Inhibitor] (10 µM),inactive: 0
12,NC(=O)c1nc(-c2c(F)cccc2Cl)oc1Nc1ccc(C(=O)N2CCOCC2)cc1 (10 µM),inactive: 0
13,O=C(NCc1cccc(O)c1)c1cc2cc(F)ccc2[nH]1 (10 µM),inactive: 0
14,Cc1nc(Nc2ncc(C(=O)Nc3c(C)cccc3Cl)s2)cc(N2CCN(C(=O)CCCCCCC(=O)N[C@H](C(=O)N3C[C@H](O)C[C@H]3C(=O)NCc3ccc(-c4scnc4C)cc3)C(C)(C)C)CC2)n1 (2.5 µM),inactive: 0
15,Cc1cccc(-c2[nH]c(C(C)(C)C)nc2-c2ccc3c(c2)OCO3)n1 (2.5 µM),inactive: 0
16,Cc1cccc(Cn2nc(C)c3c(NC(=O)c4csc5c(N)ncnc45)cccc32)n1 (10 µM),inactive: 0
17,CC[C@@H]1CN(C(=O)NCC(F)(F)F)C[C@@H]1c1cnc2cnc3[nH]ccc3n12 [Upadacitinib] (10 µM),inactive: 0
18,CNS(=O)(=O)C[C@H]1CC[C@H](N(C)c2[nH]cnc3nccc2-3)CC1 [Oclacitinib (maleate)] (10 µM),inactive: 0
19,COc1cc(-c2cnc(N)c(-c3ccc(NC(=O)c4cn(CC5CCOCC5)cc(-c5ccc(C)cn5)c4=O)cc3F)c2)ccc1OC[C@H]1COCCO1 [DS-1205b (free base)] (10 µM),inactive: 0

# Three compounds already listed, sorted by molar mass, ascending:
row,SMILES,kinase-Nluc reporter destabilization hit call
11,CCn1c(-c2nonc2N)nc2c(C#CCO)ncc(OCCCN)c21 [AKT Kinase Inhibitor] (10 µM),inactive: 0
12,NC(=O)c1nc(-c2c(F)cccc2Cl)oc1Nc1ccc(C(=O)N2CCOCC2)cc1 (10 µM),inactive: 0
8,COc1ccc(C2CC(c3ccc(Cl)cc3)=NN2c2nc(-c3ccncc3)cs2)cc1 (stereo not drawn) [mTOR inhibitor-8] (10 µM),inactive: 0
